# From publication doi:10.1101/2024.10.27.620453
# Amino acid sequences for entries named in this document (tags omitted). Residues count along the entry.
# UniProt O75460, residues 19-977: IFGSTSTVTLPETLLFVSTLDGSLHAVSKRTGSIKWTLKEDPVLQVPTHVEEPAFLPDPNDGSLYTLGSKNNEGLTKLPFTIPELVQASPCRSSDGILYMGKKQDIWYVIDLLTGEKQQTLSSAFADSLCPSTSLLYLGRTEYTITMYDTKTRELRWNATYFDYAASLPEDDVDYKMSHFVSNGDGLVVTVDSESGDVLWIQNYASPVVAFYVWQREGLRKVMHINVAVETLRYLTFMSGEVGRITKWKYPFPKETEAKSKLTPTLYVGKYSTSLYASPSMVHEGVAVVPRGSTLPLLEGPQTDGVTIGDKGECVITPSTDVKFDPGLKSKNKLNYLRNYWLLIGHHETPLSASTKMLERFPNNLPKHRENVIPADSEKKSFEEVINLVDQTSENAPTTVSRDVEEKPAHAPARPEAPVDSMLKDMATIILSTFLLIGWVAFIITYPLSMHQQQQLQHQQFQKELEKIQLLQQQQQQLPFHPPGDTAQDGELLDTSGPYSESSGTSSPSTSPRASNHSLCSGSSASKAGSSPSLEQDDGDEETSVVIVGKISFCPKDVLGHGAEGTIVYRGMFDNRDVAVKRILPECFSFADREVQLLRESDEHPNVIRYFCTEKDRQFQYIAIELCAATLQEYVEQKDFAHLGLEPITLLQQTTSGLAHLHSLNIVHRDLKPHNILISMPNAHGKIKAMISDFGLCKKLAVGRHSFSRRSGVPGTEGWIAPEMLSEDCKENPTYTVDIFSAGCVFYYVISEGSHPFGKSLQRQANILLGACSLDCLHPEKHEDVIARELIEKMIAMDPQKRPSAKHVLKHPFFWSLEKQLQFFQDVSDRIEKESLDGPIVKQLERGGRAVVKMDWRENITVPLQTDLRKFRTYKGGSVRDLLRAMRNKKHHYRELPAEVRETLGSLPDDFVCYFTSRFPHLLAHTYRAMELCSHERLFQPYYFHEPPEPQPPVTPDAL
# UniProt P53618: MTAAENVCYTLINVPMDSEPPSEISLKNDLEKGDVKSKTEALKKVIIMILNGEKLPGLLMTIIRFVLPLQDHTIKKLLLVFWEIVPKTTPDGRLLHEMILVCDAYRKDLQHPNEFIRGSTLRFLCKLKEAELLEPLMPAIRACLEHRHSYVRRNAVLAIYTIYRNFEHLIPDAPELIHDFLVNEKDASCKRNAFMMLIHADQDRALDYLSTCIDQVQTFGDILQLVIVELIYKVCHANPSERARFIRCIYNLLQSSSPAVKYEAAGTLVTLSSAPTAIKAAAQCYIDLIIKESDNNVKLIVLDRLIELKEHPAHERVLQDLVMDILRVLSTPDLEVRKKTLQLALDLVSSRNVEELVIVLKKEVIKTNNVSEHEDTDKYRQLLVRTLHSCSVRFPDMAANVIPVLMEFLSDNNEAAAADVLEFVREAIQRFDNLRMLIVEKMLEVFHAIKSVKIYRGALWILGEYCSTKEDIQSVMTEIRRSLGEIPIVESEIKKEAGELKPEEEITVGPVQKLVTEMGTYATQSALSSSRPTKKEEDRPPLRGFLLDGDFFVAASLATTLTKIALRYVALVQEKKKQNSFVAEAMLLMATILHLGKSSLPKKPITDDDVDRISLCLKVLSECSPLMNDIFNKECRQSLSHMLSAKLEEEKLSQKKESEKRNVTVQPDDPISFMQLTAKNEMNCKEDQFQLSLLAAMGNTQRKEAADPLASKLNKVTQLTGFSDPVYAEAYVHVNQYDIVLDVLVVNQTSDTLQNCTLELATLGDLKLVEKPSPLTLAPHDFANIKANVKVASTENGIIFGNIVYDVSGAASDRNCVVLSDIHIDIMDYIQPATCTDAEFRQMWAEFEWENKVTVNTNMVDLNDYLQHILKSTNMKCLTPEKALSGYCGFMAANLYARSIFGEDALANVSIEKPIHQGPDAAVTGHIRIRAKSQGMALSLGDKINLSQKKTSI
# UniProt P21333: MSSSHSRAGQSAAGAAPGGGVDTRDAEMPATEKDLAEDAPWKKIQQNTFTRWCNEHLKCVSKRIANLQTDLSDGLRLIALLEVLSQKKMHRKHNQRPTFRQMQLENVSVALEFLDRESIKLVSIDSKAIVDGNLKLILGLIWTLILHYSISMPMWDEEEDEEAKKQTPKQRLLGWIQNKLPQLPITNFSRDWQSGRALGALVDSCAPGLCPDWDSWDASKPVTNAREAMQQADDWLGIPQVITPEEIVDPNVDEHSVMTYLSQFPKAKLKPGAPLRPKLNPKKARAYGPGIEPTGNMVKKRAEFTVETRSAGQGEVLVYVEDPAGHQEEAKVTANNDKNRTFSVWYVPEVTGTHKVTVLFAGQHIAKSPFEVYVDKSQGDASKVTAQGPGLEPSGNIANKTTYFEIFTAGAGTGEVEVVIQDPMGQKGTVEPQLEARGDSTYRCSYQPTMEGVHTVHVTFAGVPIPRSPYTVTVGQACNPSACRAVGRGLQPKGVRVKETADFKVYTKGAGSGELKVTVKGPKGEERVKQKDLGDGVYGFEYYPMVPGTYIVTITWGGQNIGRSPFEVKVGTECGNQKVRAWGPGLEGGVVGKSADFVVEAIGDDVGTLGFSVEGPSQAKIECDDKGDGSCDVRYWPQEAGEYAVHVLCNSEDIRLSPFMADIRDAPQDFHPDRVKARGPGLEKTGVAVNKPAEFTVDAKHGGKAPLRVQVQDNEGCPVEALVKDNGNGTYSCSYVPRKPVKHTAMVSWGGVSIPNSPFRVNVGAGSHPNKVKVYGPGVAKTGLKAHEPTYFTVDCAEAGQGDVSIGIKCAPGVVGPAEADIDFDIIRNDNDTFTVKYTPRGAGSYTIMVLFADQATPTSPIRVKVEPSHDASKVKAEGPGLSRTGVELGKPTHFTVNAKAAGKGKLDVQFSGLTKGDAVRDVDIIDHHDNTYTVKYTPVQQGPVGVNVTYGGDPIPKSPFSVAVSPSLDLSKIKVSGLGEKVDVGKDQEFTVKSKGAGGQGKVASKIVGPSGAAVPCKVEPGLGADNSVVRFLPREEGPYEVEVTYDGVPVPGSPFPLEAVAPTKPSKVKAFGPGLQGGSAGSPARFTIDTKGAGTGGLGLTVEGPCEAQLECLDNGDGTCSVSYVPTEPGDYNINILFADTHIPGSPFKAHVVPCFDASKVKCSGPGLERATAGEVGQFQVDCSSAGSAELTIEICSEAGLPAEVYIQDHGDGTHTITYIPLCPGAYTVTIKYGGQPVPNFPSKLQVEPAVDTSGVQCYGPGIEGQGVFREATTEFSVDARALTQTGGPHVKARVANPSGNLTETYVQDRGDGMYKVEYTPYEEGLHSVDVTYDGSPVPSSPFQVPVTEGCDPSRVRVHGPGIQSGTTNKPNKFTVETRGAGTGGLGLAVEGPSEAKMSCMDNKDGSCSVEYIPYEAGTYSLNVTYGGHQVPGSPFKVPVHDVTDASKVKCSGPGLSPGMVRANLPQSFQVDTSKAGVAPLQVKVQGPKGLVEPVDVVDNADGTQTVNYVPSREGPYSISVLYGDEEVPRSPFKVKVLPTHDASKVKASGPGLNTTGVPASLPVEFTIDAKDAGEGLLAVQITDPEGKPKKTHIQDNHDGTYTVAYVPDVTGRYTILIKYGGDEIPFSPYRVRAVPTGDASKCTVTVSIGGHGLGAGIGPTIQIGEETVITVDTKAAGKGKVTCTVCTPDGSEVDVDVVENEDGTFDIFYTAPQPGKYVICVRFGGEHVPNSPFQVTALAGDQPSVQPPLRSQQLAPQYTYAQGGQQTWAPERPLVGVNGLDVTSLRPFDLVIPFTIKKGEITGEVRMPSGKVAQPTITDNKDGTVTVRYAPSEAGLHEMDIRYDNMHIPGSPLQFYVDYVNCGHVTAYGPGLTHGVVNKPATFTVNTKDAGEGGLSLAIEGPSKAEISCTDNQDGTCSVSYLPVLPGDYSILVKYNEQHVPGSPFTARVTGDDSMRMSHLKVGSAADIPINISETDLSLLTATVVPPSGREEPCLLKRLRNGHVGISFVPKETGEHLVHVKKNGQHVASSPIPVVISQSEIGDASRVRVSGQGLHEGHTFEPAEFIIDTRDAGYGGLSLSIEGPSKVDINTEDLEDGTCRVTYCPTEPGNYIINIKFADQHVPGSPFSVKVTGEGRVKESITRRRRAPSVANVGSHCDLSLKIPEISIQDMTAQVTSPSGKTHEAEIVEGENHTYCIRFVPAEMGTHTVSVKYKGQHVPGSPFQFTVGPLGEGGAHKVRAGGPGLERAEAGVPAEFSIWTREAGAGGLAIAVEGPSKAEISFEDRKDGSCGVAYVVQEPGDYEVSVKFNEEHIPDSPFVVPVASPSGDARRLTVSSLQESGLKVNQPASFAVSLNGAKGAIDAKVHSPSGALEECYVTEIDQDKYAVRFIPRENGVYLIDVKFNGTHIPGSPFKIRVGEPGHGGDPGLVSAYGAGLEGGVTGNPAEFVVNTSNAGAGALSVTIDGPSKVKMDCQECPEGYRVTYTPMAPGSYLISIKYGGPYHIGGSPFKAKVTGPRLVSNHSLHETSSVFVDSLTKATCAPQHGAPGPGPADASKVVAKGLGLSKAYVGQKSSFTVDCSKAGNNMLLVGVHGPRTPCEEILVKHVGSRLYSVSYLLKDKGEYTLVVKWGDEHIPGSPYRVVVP
# UniProt Q13283: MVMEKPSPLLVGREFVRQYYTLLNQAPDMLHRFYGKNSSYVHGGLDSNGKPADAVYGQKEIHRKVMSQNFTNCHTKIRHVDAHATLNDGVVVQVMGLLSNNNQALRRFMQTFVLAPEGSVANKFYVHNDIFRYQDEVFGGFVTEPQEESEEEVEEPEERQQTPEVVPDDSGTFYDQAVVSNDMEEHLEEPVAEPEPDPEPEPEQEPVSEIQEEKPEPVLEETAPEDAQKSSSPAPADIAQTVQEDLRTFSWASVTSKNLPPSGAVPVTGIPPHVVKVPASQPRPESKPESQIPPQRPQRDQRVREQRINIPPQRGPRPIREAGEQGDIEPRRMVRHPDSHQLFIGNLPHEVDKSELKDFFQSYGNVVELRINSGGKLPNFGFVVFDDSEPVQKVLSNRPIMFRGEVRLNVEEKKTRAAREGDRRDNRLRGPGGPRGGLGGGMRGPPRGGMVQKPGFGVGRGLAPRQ
# UniProt P14625, residues 22-803: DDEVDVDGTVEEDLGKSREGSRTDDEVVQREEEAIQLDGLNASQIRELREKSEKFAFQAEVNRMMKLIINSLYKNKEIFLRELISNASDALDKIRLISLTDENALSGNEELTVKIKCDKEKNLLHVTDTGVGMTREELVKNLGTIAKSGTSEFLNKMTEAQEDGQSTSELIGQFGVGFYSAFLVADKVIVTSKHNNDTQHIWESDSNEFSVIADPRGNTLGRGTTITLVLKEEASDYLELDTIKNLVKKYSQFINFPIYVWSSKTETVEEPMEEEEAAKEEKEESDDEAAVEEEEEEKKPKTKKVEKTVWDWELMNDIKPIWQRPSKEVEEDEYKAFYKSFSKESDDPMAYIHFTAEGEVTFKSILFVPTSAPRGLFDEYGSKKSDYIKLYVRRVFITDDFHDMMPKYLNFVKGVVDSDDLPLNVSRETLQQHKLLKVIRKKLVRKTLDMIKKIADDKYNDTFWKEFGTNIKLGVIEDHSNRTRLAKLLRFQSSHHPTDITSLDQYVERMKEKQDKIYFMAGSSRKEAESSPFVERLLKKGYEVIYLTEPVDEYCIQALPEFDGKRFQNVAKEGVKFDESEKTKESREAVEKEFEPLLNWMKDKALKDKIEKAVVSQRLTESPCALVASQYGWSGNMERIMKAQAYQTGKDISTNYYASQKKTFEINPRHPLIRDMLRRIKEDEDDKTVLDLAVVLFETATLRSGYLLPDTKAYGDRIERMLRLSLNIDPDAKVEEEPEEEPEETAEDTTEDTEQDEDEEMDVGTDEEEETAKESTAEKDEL
# UniProt P11142: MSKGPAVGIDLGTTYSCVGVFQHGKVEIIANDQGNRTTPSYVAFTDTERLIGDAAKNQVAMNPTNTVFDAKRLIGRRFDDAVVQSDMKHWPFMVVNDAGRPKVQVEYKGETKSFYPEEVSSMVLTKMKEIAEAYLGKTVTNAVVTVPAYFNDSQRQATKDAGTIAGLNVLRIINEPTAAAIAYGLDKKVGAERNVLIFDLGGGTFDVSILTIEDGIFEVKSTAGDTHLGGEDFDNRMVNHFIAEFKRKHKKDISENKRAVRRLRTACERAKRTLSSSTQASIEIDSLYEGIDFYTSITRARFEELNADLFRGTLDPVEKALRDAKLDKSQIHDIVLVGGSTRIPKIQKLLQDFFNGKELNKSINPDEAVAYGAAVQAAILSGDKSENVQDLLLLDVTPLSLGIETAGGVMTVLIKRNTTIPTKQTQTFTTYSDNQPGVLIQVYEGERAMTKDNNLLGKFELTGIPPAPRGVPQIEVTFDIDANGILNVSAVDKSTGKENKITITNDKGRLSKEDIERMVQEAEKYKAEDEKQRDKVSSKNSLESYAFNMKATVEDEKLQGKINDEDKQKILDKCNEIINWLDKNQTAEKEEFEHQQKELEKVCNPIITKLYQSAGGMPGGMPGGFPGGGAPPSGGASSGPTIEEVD
# Read-outs that look alike come from different tables or passages of the source. Results are given in words; binding and its absence hold for the method and conditions named. In cells and extracts the contact can be indirect. These calls come from enrichment with a bait or labelling near it, and not all partners need be listed.
# B1: HNRNPL (Heterogeneous nuclear ribonucleoprotein L) (protein, UniProt P14866 1-589)
# chain: MSRRLLPRAEKRRRRLEQRQQPDEQRRRSGAMVKMAAAGGGGGGGRYYGGGSEGGRAPKRLKTDNAGDQHGGGGGGGGGAGAAGGGGGGENYDDPHKTPASPVVHIRGLIDGVVEADLVEALQEFGPISYVVVMPKKRQALVEFEDVLGACNAVNYAADNQIYIAGHPAFVNYSTSQKISRPGDSDDSRSVNSVLLFTILNPIYSITTDVLYTICNPCGPVQRIVIFRKNGVQAMVEFDSVQSAQRAKASLNGADIYSGCCTLKIEYAKPTRLNVFKNDQDTWDYTNPNLSGQGDPGSNPNKRQRQPPLLGDHPAEYGGPHGGYHSHYHDEGYGPPPPHYEGRRMGPPVGGHRRGPSRYGPQYGHPPPPPPPPEYGPHADSPVLMVYGLDQSKMNCDRVFNVFCLYGNVEKVKFMKSKPGAAMVEMADGYAVDRAITHLNNNFMFGQKLNVCVSKQPAIMPGQSYGLEDGSCSYKDFSESRNNRFSTPEQAAKNRIQHPSNVLHFFNAPLEVTEENFFEICDELGVKRPSSVKVFSGKSERSSSGLLEWESKSDALETLGFLNHYQMKNPNGPYPYTLKLCFSTAQHAS
# B2: UBXN4 (protein, UniProt Q92575 1-508)
# chain: MLWFQGAIPAAIATAKRSGAVFVVFVAGDDEQSTQMAASWEDDKVTEASSNSFVAIKIDTKSEACLQFSQIYPVVCVPSSFFIGDSGIPLEVIAGSVSADELVTRIHKVRQMHLLKSETSVANGSQSESSVSTPSASFEPNNTCENSQSRNAELCEIPPTSDTKSDTATGGESAGHATSSQEPSGCSDQRPAEDLNIRVERLTKKLEERREEKRKEEEQREIKKEIERRKTGKEMLDYKRKQEEELTKRMLEERNREKAEDRAARERIKQQIALDRAERAARFAKTKEEVEAAKAAALLAKQAEMEVKRESYARERSTVARIQFRLPDGSSFTNQFPSDAPLEEARQFAAQTVGNTYGNFSLATMFPRREFTKEDYKKKLLDLELAPSASVVLLPAGRPTASIVHSSSGDIWTLLGTVLYPFLAIWRLISNFLFSNPPPTQTSVRVTSSEPPNPASSSKSEKREPVRKRVLEKRGDDFKKEGKIYRLRTQDDGEDENNTWNGNSTQQM
# B3: MTDH (protein, UniProt Q86UE4 1-582)
# chain: MAARSWQDELAQQAEEGSARLREMLSVGLGFLRTELGLDLGLEPKRYPGWVILVGTGALGLLLLFLLGYGWAAACAGARKKRRSPPRKREEAAAVPAAAPDDLALLKNLRSEEQKKKNRKKLSEKPKPNGRTVEVAEGEAVRTPQSVTAKQPPEIDKKNEKSKKNKKKSKSDAKAVQNSSRHDGKEVDEGAWETKISHREKRQQRKRDKVLTDSGSLDSTIPGIENTITVTTEQLTTASFPVGSKKNKGDSHLNVQVSNFKSGKGDSTLQVSSGLNENLTVNGGGWNEKSVKLSSQISAGEEKWNSVSPASAGKRKTEPSAWSQDTGDANTNGKDWGRSWSDRSIFSGIGSTAEPVSQSTTSDYQWDVSRNQPYIDDEWSGLNGLSSADPNSDWNAPAEEWGNWVDEERASLLKSQEPIPDDQKVSDDDKEKGEGALPTGKSKKKKKKKKKQGEDNSTAQDTEELEKEIREDLPVNTSKTRPKQEKAFSLKTISTSDPAEVLVKNSQPIKTLPPATSTEPSVILSKSDSDKSSSQVPPILQETDKSKSNTKQNSVPPSQTKSETSWESPKQIKKKKKARRET
# B4: UPF1 (protein, UniProt Q92900 1-1129)
# chain: MSVEAYGPSSQTLTFLDTEEAELLGADTQGSEFEFTDFTLPSQTQTPPGGPGGPGGGGAGGPGGAGAGAAAGQLDAQVGPEGILQNGAVDDSVAKTSQLLAELNFEEDEEDTYYTKDLPIHACSYCGIHDPACVVYCNTSKKWFCNGRGNTSGSHIVNHLVRAKCKEVTLHKDGPLGETVLECYNCGCRNVFLLGFIPAKADSVVVLLCRQPCASQSSLKDINWDSSQWQPLIQDRCFLSWLVKIPSEQEQLRARQITAQQINKLEELWKENPSATLEDLEKPGVDEEPQHVLLRYEDAYQYQNIFGPLVKLEADYDKKLKESQTQDNITVRWDLGLNKKRIAYFTLPKTDSGNEDLVIIWLRDMRLMQGDEICLRYKGDLAPLWKGIGHVIKVPDNYGDEIAIELRSSVGAPVEVTHNFQVDFVWKSTSFDRMQSALKTFAVDETSVSGYIYHKLLGHEVEDVIIKCQLPKRFTAQGLPDLNHSQVYAVKTVLQRPLSLIQGPPGTGKTVTSATIVYHLARQGNGPVLVCAPSNIAVDQLTEKIHQTGLKVVRLCAKSREAIDSPVSFLALHNQIRNMDSMPELQKLQQLKDETGELSSADEKRYRALKRTAERELLMNADVICCTCVGAGDPRLAKMQFRSILIDESTQATEPECMVPVVLGAKQLILVGDHCQLGPVVMCKKAAKAGLSQSLFERLVVLGIRPIRLQVQYRMHPALSAFPSNIFYEGSLQNGVTAADRVKKGFDFQWPQPDKPMFFYVTQGQEEIASSGTSYLNRTEAANVEKITTKLLKAGAKPDQIGIITPYEGQRSYLVQYMQFSGSLHTKLYQEVEIASVDAFQGREKDFIILSCVRANEHQGIGFLNDPRRLNVALTRARYGVIIVGNPKALSKQPLWNHLLNYYKEQKVLVEGPLNNLRESLMQFSKPRKLVNTINPGARFMTTAMYDAREAIIPGSVYDRSSQGRPSSMYFQTHDQIGMISAGPSHVAAMNIPIPFNLVMPPMPPPGYFGQANGPAAGRGTPKGKTGRGGRQKNRFGLPGPSQTNLPNSQASQDVASQPFSQGALTQGYISMSQPSQMSQPGLSQPELSQDSYLGDEFKSQIDVALSQDSTYQGERAYQHGGVTGLSQY
# B5: PDIA4 (protein, UniProt P13667 21-645)
# chain: VAGAEGPDEDSSNRENAIEDEEEEEEEDDDEEEDDLEVKEENGVLVLNDANFDNFVADKDTVLLEFYAPWCGHCKQFAPEYEKIANILKDKDPPIPVAKIDATSASVLASRFDVSGYPTIKILKKGQAVDYEGSRTQEEIVAKVREVSQPDWTPPPEVTLVLTKENFDEVVNDADIILVEFYAPWCGHCKKLAPEYEKAAKELSKRSPPIPLAKVDATAETDLAKRFDVSGYPTLKIFRKGRPYDYNGPREKYGIVDYMIEQSGPPSKEILTLKQVQEFLKDGDDVIIIGVFKGESDPAYQQYQDAANNLREDYKFHHTFSTEIAKFLKVSQGQLVVMQPEKFQSKYEPRSHMMDVQGSTQDSAIKDFVLKYALPLVGHRKVSNDAKRYTRRPLVVVYYSVDFSFDYRAATQFWRSKVLEVAKDFPEYTFAIADEEDYAGEVKDLGLSESGEDVNAAILDESGKKFAMEPEEFDSDTLREFVTAFKKGKLKPVIKSQPVPKNNKGPVKVVVGKTFDSIVMDPKKDVLIEFYAPWCGHCKQLEPVYNSLAKKYKGQKGLVIAKMDATANDVPSDRYKVEGFPTIYFAPSGDKKNPVKFEGGDRDLEHLSKFIEEHATKLSRTKEEL
# B6: PTPN1 (enzyme, UniProt P18031 1-435)
# chain: MEMEKEFEQIDKSGSWAAIYQDIRHEASDFPCRVAKLPKNKNRNRYRDVSPFDHSRIKLHQEDNDYINASLIKMEEAQRSYILTQGPLPNTCGHFWEMVWEQKSRGVVMLNRVMEKGSLKCAQYWPQKEEKEMIFEDTNLKLTLISEDIKSYYTVRQLELENLTTQETREILHFHYTTWPDFGVPESPASFLNFLFKVRESGSLSPEHGPVVVHCSAGIGRSGTFCLADTCLLLMDKRKDPSSVDIKKVLLEMRKFRMGLIQTADQLRFSYLAVIEGAKFIMGDSSVQDQWKELSHEDLEPPPEHIPPPPRPPKRILEPHNGKCREFFPNHQWVKEETQEDKDCPIKEEKGSPLNAAPYGIESMSQDTEVRSRVVGGSLRGAQAASPAKGEPSLPEKDEDHALSYWKPFLVNMCVATVLTAGAYLCYRFLFNSNT
# B7: RPN1 (protein, UniProt P04843 24-607)
# chain: ASSEAPPLINEDVKRTVDLSSHLAKVTAEVVLAHLGGGSTSRATSFLLALEPELEARLAHLGVQVKGEDEEENNLEVRETKIKGKSGRFFTVKLPVALDPGAKISVIVETVYTHVLHPYPTQITQSEKQFVVFEGNHYFYSPYPTKTQTMRVKLASRNVESYTKLGNPTRSEDLLDYGPFRDVPAYSQDTFKVHYENNSPFLTITSMTRVIEVSHWGNIAVEENVDLKHTGAVLKGPFSRYDYQRQPDSGISSIRSFKTILPAAAQDVYYRDEIGNVSTSHLLILDDSVEMEIRPRFPLFGGWKTHYIVGYNLPSYEYLYNLGDQYALKMRFVDHVFDEQVIDSLTVKIILPEGAKNIEIDSPYEISRAPDELHYTYLDTFGRPVIVAYKKNLVEQHIQDIVVHYTFNKVLMLQEPLLVVAAFYILFFTVIIYVRLDFSITKDPAAEARMKVACITEQVLTLVNKRIGLYRHFDETVNRYKQSRDISTLNSGKKSLETEHKALTSEIALLQSRLKTEGSDLCDRVSEMQKLDAQVKELVLKSAVEAERLVAGKLKKDTYIENEKLISGKRQELVTKIDHILDAL
# Experiments:
# [1] = biological target: IRE1-BirA* fusion protein (IRE1α with the biotin ligase BirA* and a Flag tag) (human) (UniProt O75460); assay: proximity labelling
# [2] = biological target: IRE1-BirA* fusion protein (IRE1α with the biotin ligase BirA* and a Flag tag) (human) (UniProt O75460); assay: proximity labelling; remark: listed apart in the source
Molecule,binding [1],binding [2]
COPB1 (from UniProt P53618 1-953),binds,–
FLNA (from UniProt P21333 1-2647),binds,–
G3BP1 (from UniProt Q13283 1-466),binds,–
HSP90B1 (from UniProt P14625 22-803),binds,–
HSPA8 (from UniProt P11142 1-646),binds,–
STIM1 (from UniProt Q13586 23-685),binds,–
VCP (from UniProt P55072 1-806),binds,–
B1,–,binds
B2,–,binds
B3,–,binds
B4,–,binds
B5,–,binds
B6,–,binds
B7,–,binds
